Results are given in words; binding and its absence hold for the method and conditions named. Binding seen in cells or lysates may run through a third protein. Some results given as binding are weak or reduced against the parent protein; the word gives no strength.
What was measured:
[1] = biological target: T1, macrophage migration inhibitory factor (MIF) (human (endogenous in HOS/143B)) (UniProt P14174); test: co-IP; total cellular proteins of HOS/143B cells, immunoprecipitation with antibodies against MIF, western blots for p65, CD74 or STUB1; cells with or without 40 μM 4-IPP for 12 h
T1 sequence: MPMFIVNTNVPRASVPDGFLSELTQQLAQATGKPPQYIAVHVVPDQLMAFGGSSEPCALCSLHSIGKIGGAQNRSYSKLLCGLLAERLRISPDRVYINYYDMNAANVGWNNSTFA

Sequences of proteins named here, by UniProt entry; tags and fusion partners are left off.
UniProt Q04206: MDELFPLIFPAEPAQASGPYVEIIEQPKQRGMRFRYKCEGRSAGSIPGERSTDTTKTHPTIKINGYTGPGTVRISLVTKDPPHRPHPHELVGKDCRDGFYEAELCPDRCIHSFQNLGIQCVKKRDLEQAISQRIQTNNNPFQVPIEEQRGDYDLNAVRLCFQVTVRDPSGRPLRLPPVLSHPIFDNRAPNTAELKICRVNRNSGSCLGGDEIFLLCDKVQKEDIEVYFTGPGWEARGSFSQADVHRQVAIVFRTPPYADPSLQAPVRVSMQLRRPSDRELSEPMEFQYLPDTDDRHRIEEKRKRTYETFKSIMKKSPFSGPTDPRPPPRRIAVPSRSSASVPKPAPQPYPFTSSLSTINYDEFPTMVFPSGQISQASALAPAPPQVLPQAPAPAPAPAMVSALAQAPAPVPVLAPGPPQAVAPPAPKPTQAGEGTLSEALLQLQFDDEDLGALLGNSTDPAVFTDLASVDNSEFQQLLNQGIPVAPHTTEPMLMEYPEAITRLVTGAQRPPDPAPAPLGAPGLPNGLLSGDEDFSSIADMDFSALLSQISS
UniProt Q9UNE7: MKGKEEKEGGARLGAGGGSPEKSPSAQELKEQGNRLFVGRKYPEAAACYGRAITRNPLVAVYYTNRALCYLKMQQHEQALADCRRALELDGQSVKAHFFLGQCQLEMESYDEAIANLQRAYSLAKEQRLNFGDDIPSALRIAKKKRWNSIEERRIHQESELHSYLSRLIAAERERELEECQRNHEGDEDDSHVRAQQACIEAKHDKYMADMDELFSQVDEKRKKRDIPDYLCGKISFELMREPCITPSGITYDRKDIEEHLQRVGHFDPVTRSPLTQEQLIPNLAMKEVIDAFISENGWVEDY

MIF in 293T cells = biological target: T2, MIF in 293T cells (UniProt P14174); test: co-IP; 293T cells transfected for 24 h with STUB1 truncation or mutation plasmids, lysed, coimmunoprecipitation and western blotting
T2 sequence: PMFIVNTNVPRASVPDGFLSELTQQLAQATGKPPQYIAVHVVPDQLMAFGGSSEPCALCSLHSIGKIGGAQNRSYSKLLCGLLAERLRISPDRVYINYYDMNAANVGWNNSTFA

Row | binding [1] | binding (MIF in 293T cells) | Substance
1 | binds |  | p65 (from UniProt Q04206 1-551)
2 |  | binds | STUB1, expressed from a plasmid in 293T cells (from UniProt Q9UNE7 1-303) (enzyme)
3 | binds |  | E3 ubiquitin-protein ligase STUB1 (from UniProt Q9UNE7 1-303) (enzyme)

Source: paper PMC8777168
